This data set can be described thus: Stability study of green tea catechins: incubation in Na-Pi buffer pH 7.4 at 37° C., HPLC. It is filed as physicochemical. The settings on record: GTE 0.1%, pH 7.4, 37° C. Here is the method: Samples were prepared according to the following method. Briefly, each sample was treated with acetic acid (30% final concentration) for 30 min and then added to an aqueous solution containing 10% acetonitrile, 0.5 mg/mL EDTA and 0.5 mg/mL ascorbic acid. The mix was then centrifuged for 30 min at 14′000×g and the supernatant analysed by HPLC. Following this protocol allows the complete recovery of all catechins.
Green tea catechins were determined by reverse phase HPLC using an analytical method based on the ISO FDIS 14502-2 method. The HPLC system used was a 1100 series Hewlett-Packard (Geneva, Switzerland) model equipped with an ultraviolet-visible photodiode array and a fluorimetric detector. Catechins were detected by UV absorption at 280.4 nm except for catechins and epicatechin that were detected by fluorescence (excitation: 280 nm; emission: 310 nm). Samples (10 μl) were separated on a Zorbax RX—C18 column (4.6 mm internal diameter×250 mm length, Agilent technologies). Flow rate was 1.0 mL/min.
Sample concentration of green tea catechins (C, EC, EgC, EgCg, ECg) were calculated based on the corresponding calibration curve and reported as % of the initial value (sample at t0). Since caffeine, endogenous to green tea samples, is stable under the selected assay conditions, it was used as internal standard for all calculations. […]

On to `O=C1O[C@H]([C@@H](O)CO)C(O)=C1O` [vitamin C, ascorbic acid], for which, where the note is “selected concentrations”, the “vitamin C concentration at which significant effects on catechin retention were visible” value was determined as 0.5 mM. For the same molecule, the “vitamin C concentration for maximum protection” value (at 2 h) is on record as ≥ 1 mM.
